According to the supplement of paper PMC10849652:
Some of the results follow.

Amino acid sequences for entries named in this document (tags omitted). A change or cut given only in a name is not applied to a line headed by its entry.
UniProt Q15388, whole entry, looked up: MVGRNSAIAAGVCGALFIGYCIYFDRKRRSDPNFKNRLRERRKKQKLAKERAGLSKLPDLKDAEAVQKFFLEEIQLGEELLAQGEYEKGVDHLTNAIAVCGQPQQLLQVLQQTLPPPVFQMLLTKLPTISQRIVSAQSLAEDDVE
UniProt Q2T9K0: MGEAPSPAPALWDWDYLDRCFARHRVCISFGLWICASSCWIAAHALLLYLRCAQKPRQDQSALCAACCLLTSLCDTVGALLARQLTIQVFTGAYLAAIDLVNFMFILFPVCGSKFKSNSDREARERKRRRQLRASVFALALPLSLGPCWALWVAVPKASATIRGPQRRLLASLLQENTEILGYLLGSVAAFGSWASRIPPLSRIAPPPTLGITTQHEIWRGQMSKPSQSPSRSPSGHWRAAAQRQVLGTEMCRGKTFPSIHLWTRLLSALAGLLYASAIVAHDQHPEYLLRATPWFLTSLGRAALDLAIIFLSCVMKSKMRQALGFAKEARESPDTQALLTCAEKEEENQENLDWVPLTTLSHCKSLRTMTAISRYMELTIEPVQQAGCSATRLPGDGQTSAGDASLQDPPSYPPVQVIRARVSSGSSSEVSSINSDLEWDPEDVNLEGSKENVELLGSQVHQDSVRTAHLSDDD
UniProt Q9BSE2: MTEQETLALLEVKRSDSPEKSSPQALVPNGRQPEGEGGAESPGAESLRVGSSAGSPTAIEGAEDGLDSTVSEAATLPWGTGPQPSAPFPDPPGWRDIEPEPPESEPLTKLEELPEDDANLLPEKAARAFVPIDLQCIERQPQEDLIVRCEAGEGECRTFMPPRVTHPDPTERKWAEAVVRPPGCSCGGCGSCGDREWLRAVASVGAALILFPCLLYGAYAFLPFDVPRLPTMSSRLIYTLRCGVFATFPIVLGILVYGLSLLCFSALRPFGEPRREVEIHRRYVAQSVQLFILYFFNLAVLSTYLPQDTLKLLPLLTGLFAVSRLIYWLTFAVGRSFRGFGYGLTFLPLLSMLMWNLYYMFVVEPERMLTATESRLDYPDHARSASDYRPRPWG
UniProt Q13641: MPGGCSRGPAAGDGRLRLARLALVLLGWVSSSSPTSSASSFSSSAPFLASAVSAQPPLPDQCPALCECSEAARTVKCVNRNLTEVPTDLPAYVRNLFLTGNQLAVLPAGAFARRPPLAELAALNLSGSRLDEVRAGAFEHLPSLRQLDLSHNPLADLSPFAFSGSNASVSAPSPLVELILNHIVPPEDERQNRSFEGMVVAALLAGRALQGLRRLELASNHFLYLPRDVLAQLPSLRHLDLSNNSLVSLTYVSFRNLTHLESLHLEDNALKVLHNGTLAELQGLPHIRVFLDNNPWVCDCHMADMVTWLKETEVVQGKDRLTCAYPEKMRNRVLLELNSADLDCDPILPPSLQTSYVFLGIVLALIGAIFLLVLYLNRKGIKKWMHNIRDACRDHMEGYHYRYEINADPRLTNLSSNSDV
UniProt Q96A57: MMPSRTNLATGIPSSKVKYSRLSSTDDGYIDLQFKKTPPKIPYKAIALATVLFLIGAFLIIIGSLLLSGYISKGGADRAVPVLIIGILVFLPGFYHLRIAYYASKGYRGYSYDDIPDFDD
UniProt Q86W33: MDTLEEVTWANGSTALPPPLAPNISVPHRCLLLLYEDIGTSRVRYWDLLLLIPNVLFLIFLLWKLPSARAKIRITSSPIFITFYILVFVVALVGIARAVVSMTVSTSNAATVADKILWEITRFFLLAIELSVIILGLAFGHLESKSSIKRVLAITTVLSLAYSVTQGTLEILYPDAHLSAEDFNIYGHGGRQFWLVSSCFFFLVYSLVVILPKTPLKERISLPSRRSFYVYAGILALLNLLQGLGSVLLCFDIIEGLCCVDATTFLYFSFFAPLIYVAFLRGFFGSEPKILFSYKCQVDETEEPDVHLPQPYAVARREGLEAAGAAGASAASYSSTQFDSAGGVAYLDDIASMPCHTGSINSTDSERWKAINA
UniProt Q9HCN3: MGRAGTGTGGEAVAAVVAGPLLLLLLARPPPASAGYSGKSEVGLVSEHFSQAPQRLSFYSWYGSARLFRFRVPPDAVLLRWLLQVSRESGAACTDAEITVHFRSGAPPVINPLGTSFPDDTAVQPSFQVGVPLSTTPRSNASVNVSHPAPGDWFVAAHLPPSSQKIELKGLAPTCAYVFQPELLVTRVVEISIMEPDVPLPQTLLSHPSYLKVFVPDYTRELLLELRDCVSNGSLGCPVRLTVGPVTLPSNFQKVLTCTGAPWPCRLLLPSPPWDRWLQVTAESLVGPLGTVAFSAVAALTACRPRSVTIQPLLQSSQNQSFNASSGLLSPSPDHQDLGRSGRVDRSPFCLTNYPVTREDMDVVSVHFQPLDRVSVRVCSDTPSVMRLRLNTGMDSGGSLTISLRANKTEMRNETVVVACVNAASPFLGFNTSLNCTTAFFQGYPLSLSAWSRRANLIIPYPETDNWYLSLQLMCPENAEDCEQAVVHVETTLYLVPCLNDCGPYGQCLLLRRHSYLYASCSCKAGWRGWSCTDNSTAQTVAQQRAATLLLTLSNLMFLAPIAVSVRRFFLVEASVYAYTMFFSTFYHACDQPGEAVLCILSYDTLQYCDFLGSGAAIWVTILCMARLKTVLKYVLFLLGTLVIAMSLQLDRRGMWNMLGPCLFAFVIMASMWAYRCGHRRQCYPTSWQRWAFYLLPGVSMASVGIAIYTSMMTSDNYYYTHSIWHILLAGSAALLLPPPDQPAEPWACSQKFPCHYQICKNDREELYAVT
UniProt O60784, whole entry, looked up: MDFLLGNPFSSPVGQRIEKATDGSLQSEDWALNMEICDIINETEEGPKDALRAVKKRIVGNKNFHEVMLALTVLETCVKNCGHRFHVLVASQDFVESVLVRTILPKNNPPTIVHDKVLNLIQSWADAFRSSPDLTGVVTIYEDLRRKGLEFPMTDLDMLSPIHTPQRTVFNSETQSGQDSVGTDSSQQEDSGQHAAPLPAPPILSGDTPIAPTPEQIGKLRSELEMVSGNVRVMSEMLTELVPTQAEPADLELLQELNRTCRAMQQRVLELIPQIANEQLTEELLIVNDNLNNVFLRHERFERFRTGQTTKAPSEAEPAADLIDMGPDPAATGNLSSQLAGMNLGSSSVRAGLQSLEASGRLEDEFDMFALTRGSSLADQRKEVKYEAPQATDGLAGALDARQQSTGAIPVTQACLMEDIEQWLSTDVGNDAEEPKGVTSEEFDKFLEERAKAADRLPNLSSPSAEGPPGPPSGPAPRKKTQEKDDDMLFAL
UniProt Q96B49: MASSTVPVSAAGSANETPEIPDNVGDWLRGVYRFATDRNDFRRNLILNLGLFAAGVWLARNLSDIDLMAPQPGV
UniProt Q12767: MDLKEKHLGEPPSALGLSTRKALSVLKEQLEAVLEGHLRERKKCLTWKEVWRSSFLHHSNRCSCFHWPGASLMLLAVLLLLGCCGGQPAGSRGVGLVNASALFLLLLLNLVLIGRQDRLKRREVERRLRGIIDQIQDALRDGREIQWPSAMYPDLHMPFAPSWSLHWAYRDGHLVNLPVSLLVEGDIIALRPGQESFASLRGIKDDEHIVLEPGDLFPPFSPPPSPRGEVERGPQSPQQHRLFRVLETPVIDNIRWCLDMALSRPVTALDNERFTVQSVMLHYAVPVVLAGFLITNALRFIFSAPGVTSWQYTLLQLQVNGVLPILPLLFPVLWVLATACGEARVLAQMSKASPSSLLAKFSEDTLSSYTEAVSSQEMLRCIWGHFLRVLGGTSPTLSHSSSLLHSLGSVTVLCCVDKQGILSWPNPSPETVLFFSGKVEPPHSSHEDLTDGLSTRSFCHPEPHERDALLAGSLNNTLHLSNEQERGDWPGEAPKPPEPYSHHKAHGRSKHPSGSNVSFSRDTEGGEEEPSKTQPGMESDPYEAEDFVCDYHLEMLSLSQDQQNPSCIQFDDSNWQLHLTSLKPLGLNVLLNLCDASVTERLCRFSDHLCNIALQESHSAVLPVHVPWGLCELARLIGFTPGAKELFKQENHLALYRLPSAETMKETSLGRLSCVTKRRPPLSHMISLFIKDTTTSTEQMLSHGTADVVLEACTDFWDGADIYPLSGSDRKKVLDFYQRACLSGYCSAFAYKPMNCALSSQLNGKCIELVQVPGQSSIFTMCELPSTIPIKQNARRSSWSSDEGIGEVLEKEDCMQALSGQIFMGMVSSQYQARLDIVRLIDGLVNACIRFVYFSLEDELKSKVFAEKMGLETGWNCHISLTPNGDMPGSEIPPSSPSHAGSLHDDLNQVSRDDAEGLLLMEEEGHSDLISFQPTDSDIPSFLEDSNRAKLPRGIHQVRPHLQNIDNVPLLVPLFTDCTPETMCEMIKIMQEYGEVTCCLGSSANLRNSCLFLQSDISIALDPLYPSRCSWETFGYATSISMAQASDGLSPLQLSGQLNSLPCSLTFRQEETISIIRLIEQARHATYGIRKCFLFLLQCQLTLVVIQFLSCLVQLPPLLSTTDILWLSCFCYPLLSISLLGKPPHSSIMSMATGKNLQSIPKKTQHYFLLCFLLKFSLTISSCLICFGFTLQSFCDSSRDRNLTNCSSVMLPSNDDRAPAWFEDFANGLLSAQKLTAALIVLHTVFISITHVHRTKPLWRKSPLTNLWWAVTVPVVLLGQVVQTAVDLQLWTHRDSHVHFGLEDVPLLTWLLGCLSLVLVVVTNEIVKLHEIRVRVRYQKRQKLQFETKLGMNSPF
UniProt Q8N9V7: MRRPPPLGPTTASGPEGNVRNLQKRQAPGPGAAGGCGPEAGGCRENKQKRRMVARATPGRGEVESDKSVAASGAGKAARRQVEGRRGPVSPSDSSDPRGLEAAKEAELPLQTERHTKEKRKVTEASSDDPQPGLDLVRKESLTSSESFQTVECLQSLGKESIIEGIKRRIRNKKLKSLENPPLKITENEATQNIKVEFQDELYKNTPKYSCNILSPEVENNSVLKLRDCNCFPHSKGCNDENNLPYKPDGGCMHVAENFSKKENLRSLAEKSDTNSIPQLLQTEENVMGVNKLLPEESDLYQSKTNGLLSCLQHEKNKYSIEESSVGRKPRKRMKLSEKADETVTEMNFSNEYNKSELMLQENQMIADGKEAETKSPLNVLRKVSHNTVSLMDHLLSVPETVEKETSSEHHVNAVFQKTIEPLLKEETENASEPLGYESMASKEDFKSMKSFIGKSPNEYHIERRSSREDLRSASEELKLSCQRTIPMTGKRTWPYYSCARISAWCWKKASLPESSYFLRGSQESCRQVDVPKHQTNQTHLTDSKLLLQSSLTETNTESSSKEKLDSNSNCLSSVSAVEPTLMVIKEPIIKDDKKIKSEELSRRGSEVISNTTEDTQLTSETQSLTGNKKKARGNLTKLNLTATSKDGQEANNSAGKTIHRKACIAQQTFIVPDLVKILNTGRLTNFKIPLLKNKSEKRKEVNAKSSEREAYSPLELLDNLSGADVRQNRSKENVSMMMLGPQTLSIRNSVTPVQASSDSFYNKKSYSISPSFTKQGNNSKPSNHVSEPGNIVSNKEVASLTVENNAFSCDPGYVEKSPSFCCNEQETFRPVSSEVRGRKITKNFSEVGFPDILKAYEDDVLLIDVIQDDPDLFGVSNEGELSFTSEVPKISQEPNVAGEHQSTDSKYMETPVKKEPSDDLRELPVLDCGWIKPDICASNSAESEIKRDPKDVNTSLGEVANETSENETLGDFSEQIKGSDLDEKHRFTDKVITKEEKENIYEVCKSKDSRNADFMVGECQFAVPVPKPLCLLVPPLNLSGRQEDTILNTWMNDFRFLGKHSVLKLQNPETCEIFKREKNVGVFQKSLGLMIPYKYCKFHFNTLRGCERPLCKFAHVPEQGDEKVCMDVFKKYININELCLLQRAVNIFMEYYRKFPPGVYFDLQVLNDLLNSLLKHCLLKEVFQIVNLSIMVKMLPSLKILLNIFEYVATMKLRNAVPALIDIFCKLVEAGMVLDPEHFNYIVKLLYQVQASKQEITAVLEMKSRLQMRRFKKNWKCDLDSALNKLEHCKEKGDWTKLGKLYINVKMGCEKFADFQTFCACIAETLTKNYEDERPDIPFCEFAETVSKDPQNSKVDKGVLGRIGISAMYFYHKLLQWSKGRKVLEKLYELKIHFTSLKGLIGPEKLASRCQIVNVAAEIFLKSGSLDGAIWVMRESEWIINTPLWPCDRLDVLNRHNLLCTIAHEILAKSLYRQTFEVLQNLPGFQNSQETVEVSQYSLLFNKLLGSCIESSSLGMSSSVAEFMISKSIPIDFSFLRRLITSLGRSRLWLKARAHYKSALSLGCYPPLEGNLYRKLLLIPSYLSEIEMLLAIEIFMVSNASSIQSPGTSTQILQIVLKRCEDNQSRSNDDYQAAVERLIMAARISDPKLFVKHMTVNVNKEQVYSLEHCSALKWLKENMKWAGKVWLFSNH
UniProt P06753, whole entry, looked up: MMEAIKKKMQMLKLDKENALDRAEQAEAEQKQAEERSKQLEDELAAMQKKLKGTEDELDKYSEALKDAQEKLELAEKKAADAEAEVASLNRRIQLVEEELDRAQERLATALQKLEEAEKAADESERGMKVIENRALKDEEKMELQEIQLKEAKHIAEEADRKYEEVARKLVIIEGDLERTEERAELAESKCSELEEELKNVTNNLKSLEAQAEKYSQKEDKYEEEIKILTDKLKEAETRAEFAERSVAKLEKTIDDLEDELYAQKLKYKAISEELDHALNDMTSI

Tests used:
Test in all cases: log2 fold change, soluble protein after heating vs DMSO (PISA); higher = thermal stabilisation; K562 lysate, 10 uM; active = over 0.2 and 3.5 SD of the protein, either way, in both replicates (recomputed)
[1] = compound: Cc1cn(-c2cc(NC(=O)c3ccc(C)c(Nc4nccc(-c5cccnc5)n4)c3)cc(C(F)(F)F)c2)cn1 [nilotinib]
Procedure, shortened: (§1)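 The values are log-two fold changes in thermal stability compared with solvent controls and come from duplicates. They were obtained by TMTpro 16plex LC-MS/MS, with channel sums equalised, on the supernatant after 21,000xg for 90 min. That supernatant came from crude K562 extract at 1 mg/mL protein treated with 10 μM compound for 30 min, heated for 3 min across 48°C-58°C, pooled and brought to 0.5% NP-40 at 4°C.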

[2] = compound: Cc1nc(Nc2n[nH]c3c2CN(C(=O)N[C@H](CN(C)C)c2ccccc2)C3(C)C)c2sccc2n1
Procedure, shortened: as §1

[3] = compound: Cc1nc(Nc2ncc(C(=O)Nc3c(C)cccc3Cl)s2)cc(N2CCN(CCO)CC2)n1 [dasatinib]
Procedure, shortened: as §1

[4] = compound: Cc1ncc(-c2ccnc(Nc3ccc(S(C)(=O)=O)cc3)n2)n1C(C)C
Procedure, shortened: as §1

[5] = compound: Cn1cc(-c2ccc3c(c2)CCN3C(=O)Cc2cccc(C(F)(F)F)c2)c2c(N)ncnc21
Procedure, shortened: as §1

[6] = compound: Cn1cc(CNCC2CCN(c3ncc(C(=O)NO)cn3)CC2)c2ccccc21 [quisinostat]
Procedure, shortened: as §1

[7] = compound: Cn1cncc1[C@@](N)(c1ccc(Cl)cc1)c1ccc2c(c1)c(-c1cccc(Cl)c1)cc(=O)n2C [tipifarnib]
Procedure, shortened: as §1

[8] = compound: NC(=O)Nc1cc(-c2cccc(F)c2)sc1C(=O)N[C@H]1CCCNC1
Procedure, shortened: as §1

[9] = compound: NC(=O)c1cnc(N[C@@H]2CCCC[C@@H]2N)nc1Nc1cccc(-n2nccn2)c1
Procedure, shortened: as §1

[10] = compound: NC1(c2ccc(-c3nc4ccn5c(=O)[nH]nc5c4cc3-c3ccccc3)cc2)CCC1
Procedure, shortened: as §1

Target | log2 fold change [1] | log2 fold change [2] | log2 fold change [3] | log2 fold change [4] | log2 fold change [5] | log2 fold change [6] | log2 fold change [7] | log2 fold change [8] | log2 fold change [9] | log2 fold change [10]
TMEM43 (UniProt Q9BTV4) | inactive: -0.002 | inactive: -0.001 | inactive: 0.037 | inactive: 0.013 | inactive: 0.002 | inactive: -0.062 | inactive: -0.059 | inactive: -0.009 | inactive: 0.009 | inactive: -0.033
TNNI3K isoform 1 (UniProt Q59H18) | inactive: 0.055 | inactive: -0.013 | inactive: -0.069 | inactive: -0.054 | inactive: -0.027 | inactive: -0.012 | inactive: -0.027 | inactive: 0.045 | inactive: -0.081 | inactive: -0.051
TMEM199 (UniProt Q8N511) | inactive: 0.005 | inactive: 0.005 | inactive: -0.011 | inactive: 0.001 | inactive: 0.046 | inactive: 0.031 | inactive: 0.026 | inactive: 0 | inactive: 0.005 | inactive: 0.068
TNKS (UniProt O95271) | inactive: -0.053 | inactive: -0.016 | inactive: 0.081 | inactive: 0.04 | inactive: -0.051 | inactive: -0.021 | inactive: 0.103 | inactive: 0.032 | inactive: 0.088 | inactive: 0.028
TMX3 (UniProt Q96JJ7) | inactive: 0.025 | inactive: -0.012 | inactive: -0.014 | inactive: -0.036 | inactive: 0.03 | inactive: -0.026 | inactive: -0.032 | inactive: -0.023 | inactive: -0.006 | inactive: 0.008
TPM4 (UniProt P67936) | inactive: 0.028 | inactive: -0.068 | inactive: 0.058 | inactive: -0.028 | inactive: -0.01 | inactive: 0 | inactive: -0.004 | inactive: -0.054 | inactive: 0.007 | inactive: -0.029
TOMM20 (UniProt Q15388) | inactive: -0.06 | inactive: -0.073 | inactive: 0.066 | inactive: 0.044 | inactive: 0.007 | inactive: -0.108 | inactive: 0.074 | inactive: 0.062 | inactive: 0.016 | inactive: -0.048
TMLHE isoform 8 (UniProt Q9NVH6) | inactive: 0.015 | inactive: -0.066 | inactive: 0.035 | inactive: 0.004 | inactive: -0.058 | inactive: -0.098 | inactive: -0.024 | inactive: -0.017 | inactive: -0.057 | inactive: -0.001
TMEM44 (UniProt Q2T9K0) | – | – | inactive: 0.134 | – | inactive: 0.057 | – | – | – | inactive: 0.076 | –
TMEM79 (UniProt Q9BSE2) | inactive: -0.146 | inactive: 0.008 | – | inactive: 0.134 | – | – | inactive: -0.055 | – | – | –
TNIK (UniProt C9J338) | – | – | inactive: -0.055 | – | inactive: -0.043 | inactive: -0.292 | – | inactive: -0.043 | inactive: 0.015 | inactive: -0.068
TMEM250 (UniProt H0YL14) | – | – | – | – | – | inactive: -0.582 | – | inactive: 0.044 | – | –
TNRC6C isoform 2 (UniProt Q9HCJ0) | – | – | inactive: 0.12 | – | inactive: 0.019 | – | – | – | inactive: 0.018 | inactive: -0.005
TMPO isoform 2 (UniProt P42167) | – | – | inactive: -0.042 | – | inactive: -0.072 | – | – | – | – | –
TPBG (UniProt Q13641) | – | – | inactive: 0.037 | – | inactive: -0.075 | inactive: -0.275 | – | inactive: 0.026 | – | inactive: -0.039
TPCN1 isoform 3 (UniProt Q9ULQ1) | – | – | – | – | – | inactive: 0.012 | – | inactive: -0.026 | inactive: 0.049 | inactive: -0.044
TMEM98 (UniProt Q9Y2Y6) | inactive: 0.043 | inactive: -0.216 | – | inactive: -0.228 | – | – | inactive: -0.022 | – | – | –
TPRN (UniProt Q4KMQ1) | – | – | inactive: 0.053 | – | inactive: -0.037 | inactive: 0.02 | – | inactive: 0.002 | – | –
TPT1 (UniProt E9PJF7) | – | – | – | – | – | inactive: 0.087 | – | inactive: -0.065 | inactive: -0.142 | inactive: -0.283
TNIK isoform 5 (UniProt Q9UKE5) | – | – | inactive: 0.187 | – | inactive: 0.019 | inactive: -0.218 | – | active: 0.539 | inactive: 0.019 | –
TMEM230 isoform 2 (UniProt Q96A57) | – | – | inactive: 0.007 | – | inactive: 0.041 | inactive: -0.162 | – | inactive: 0.005 | inactive: -0.029 | inactive: -0.037

Target | log2 fold change [1] | log2 fold change [2] | log2 fold change [3] | log2 fold change [4] | log2 fold change [5] | log2 fold change [6] | log2 fold change [7] | log2 fold change [8] | log2 fold change [9] | log2 fold change [10]
TPRA1 (UniProt Q86W33) | – | – | inactive: 0.076 | – | inactive: -0.012 | inactive: -0.068 | – | inactive: 0.05 | inactive: 0.066 | inactive: 0.103
TPD52L2 isoform 3 (UniProt O43399) | inactive: 0.055 | inactive: 0.035 | – | inactive: 0.008 | – | – | inactive: 0.134 | – | – | inactive: 0.074
TMEM8A (UniProt Q9HCN3) | – | – | – | – | – | – | – | – | inactive: -0.213 | inactive: -0.012
TOM1 (UniProt O60784) | – | – | inactive: -0.033 | – | inactive: 0 | – | – | – | inactive: -0.006 | inactive: -0.243
TOMM6 (UniProt Q96B49) | – | – | inactive: 0.19 | – | inactive: 0.107 | – | – | – | – | inactive: 0.061
TMEM94 isoform 2 (UniProt Q12767) | – | – | inactive: 0.026 | – | inactive: -0.094 | inactive: 0.043 | – | inactive: 0.012 | inactive: 0.17 | inactive: -0.006
TMTC4 isoform 3 (UniProt Q5T4D3) | – | – | inactive: -0.052 | – | inactive: 0.177 | – | – | – | – | –
TOPAZ1 (UniProt Q8N9V7) | – | – | – | – | – | – | – | – | inactive: 0.066 | inactive: -0.021
TMEM273 isoform 2 (UniProt Q5T292) | – | – | – | – | – | inactive: -0.089 | – | inactive: 0.026 | – | inactive: -0.084
TPD52 isoform 3 (UniProt P55327) | – | – | – | – | – | – | – | – | inactive: 0.062 | inactive: -0.043
TMEM35B (UniProt Q8NCS4) | – | – | – | – | – | inactive: 0.075 | – | inactive: 0.12 | inactive: -0.067 | inactive: -0.06
TMEM41B (UniProt Q5BJD5) | – | – | inactive: 0.064 | – | inactive: 0.02 | inactive: 0.098 | – | inactive: -0.01 | inactive: 0.047 | inactive: 0.007
TMEM268 isoform 3 (UniProt Q5VZI3) | – | – | inactive: 0.097 | – | inactive: -0.011 | inactive: 0.058 | – | inactive: 0.02 | – | –
TPM3 isoform 3 (UniProt P06753) | – | – | inactive: 0.05 | – | inactive: 0.106 | inactive: 0.112 | – | inactive: -0.09 | inactive: 0.001 | inactive: -0.035
TMEM267 (UniProt Q0VDI3) | inactive: 0.184 | inactive: 0.196 | – | inactive: -0.105 | – | inactive: -0.246 | inactive: 0 | inactive: -0.269 | – | inactive: -0.104
TMEM256 (UniProt Q8N2U0) | – | – | inactive: -0.046 | – | inactive: 0.045 | – | – | – | inactive: -0.026 | –
TNK2 isoform 3 (UniProt Q07912) | – | – | – | – | – | inactive: -0.357 | – | inactive: 0.465 | – | –
TMEM209 (UniProt Q96SK2) | – | – | inactive: 0.077 | – | inactive: -0.059 | inactive: 0.158 | – | inactive: 0.018 | inactive: -0.003 | inactive: -0.147
TMEM19 (UniProt Q96HH6) | – | – | – | – | – | inactive: 0.151 | – | inactive: -0.013 | inactive: 0.021 | inactive: 0.057
TMEM246 (UniProt Q9BRR3) | – | – | – | – | – | – | – | – | – | inactive: -0.051
